Results on 1 molecule are retold here after PubChem BioAssay (Tox21).

Protein sequences, listed by entry. Tags and fused reporters are not part of them. Lines headed by an entry give the natural chain unless they say otherwise; changes in a name come on top.
UniProt P11229: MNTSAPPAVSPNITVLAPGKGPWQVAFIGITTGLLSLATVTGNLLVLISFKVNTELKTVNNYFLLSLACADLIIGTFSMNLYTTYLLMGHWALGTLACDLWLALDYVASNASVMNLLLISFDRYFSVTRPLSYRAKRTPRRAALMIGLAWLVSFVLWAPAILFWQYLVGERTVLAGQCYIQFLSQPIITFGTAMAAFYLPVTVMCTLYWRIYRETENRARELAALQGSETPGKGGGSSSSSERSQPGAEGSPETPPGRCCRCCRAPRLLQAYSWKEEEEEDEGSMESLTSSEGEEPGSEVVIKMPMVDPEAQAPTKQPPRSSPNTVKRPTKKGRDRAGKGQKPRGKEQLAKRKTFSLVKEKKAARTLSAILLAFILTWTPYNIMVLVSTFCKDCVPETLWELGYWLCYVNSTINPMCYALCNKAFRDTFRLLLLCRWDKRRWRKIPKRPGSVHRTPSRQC

The target in test [1] is Muscarinic acetylcholine receptor M1 (Homo sapiens) (UniProt P11229). Nature of the test: Cholinergic receptor muscarinic 1 (CHRM1) small molecule antagonists, cell-based qHTS assay (AID 1963588). Also: % is scaled to controls: 0 for no effect and ±100 for the full control effect; nearly all actives have a fitted effect of over 40% in size. To be noted: CHRM1-CHO antagonist mode, calcium flux fluorescence; at 61.5 µM (top of the series). An outline of the steps:
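CHRM1-CHO calcium-flux assay, antagonist mode. Cells were seeded 18 h, dye-loaded 1 h at 37 C and given compound for 5 min at RT, then acetylcholine was added at 50nM. FDSS fluorescence was read 3 min; 15 concentrations, three runs.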

Test [2] shares this target. Nature of the test: Cholinergic receptor muscarinic 1 (CHRM1) small molecule agonists, cell-based qHTS assay (AID 1963589). Also: potency is read from the fitted curve at half-maximal effect; nearly all actives have a fitted effect of over 35% in size. To be noted: CHRM1-CHO cells, agonist mode, calcium flux fluorescence. The text has this: National Center for Advancing Translational Sciences [NCATS]
Division of Preclinical Innovation [DPI]
U.S. Environmental Protection Agency [EPA]
National Institutes of Environmental Health Sciences [NIEHS]
National Toxicology Program [NTP]
U.S. Food and Drug Administration [FDA]
The CHRM1 is a muscarinic receptor. This receptor plays a crucial role in learning and memory processes and has long been identified as a promising therapeutic target for the improvement of cognitive decline in Alzheimer's disease (AD). The CHRM1-CHO cell line stably expressing human muscarinic acetylcholine receptor M1 (CHRM1) can be used for screening agonists and antagonists of interactions between CHRM1 and its ligands. The CHRM1-CHO Calcium Flux Assay is a homogeneous fluorescence-based assay for detecting the intracellular calcium level using FDSS kinetic plate reader system.
CHRM1-CHO cells were dispensed at 1000 cells/3uL/well in 1536-well black-clear bottom plates using a Multidrop Dispenser. After the assay plates were incubated at a 37 C/5% CO2 incubator for 18 h, 3 uL of Dye Loading Buffer was transferred to the assay plate by a Flying Reagent Dispenser. […] The fluorescence intensity in the plates was measured using […]. Each test compound was measured at 15 concentrations in three independent runs.
For orientation: Quantitative high-throughput screening tests each substance at several concentrations.

For some assays here: Shown are results outside the selection of hits, which stands elsewhere. Inconclusive results are not listed. This is a selection; strong and weak results do not stand in their true shares. Active and inactive are the calls of the source. Calls follow the shape of the full dose curve.

`CCC[CH2][Sn]([CH2]CCC)([CH2]CCC)[O]C(=O)c1ccccc1`: in test [1], the activity, negative = inhibition is inactive: 63.9%. In addition, the Potency in test [2] is active: 12.3 µM.
